Source: PMC4689849

B1: galactinol-sucrose galactosyltransferase 2 (GSGT2), 52 amino acid peptide of pGADT7-rec clone 1 (domain or fragment)
chain: GKFGVYSSQHPLQCAVDGIDTDFNYDSETGLTTFSIPVPQEGMYRWSIEIQI
B2: CBL (Calcineurin B-like)-interacting serine/threonine-protein kinase 25 (CIPK25), 88 amino acid peptide of pGADT7-rec clone 4 (domain or fragment)
chain: EIVSKIESAAKSLRFKVGKVKEFKLKLQGMMEGRKGKLAVTAEIYEVAPELAVVEFSKCSGDTFEYVKFFEDDVRPALKDIVWSWQGE

Target: 1R-MYB transcription factor (single repeat MYB; TUS38128) from chickpea (chickpea (Cicer arietinum))
Assay: two-hybrid; co-transformed Y2HGold cells on QDO/X plates with 0, 1, 2, 5, 10, 15 and 20 mM 3-AT; growth and colour as strength of interaction

Row | binding | Binder
1 | binds | B1
2 | binds | B2
3 | binds | SIVKISVKYHTKGDLVLSDAVRDETKAKGTGLLKAIEGYVLANPDY (domain or fragment) [ABA responsive 17 like protein (ABR17-like), 46 amino acid peptide of pGADT7-rec clone 5]

Target: 1R-MYB transcription factor (single repeat MYB; TUS38128) from chickpea (chickpea (Cicer arietinum))
Assay: two-hybrid; qRT-PCR of the reporter genes HIS3 and ADE2 in co-transformed Y2HGold cells grown in liquid QDO; internal controls TAF10 and UBC6

Row | binding | Binder
4 | binds | B1
5 | binds | B2
6 | binds | SIVKISVKYHTKGDLVLSDAVRDETKAKGTGLLKAIEGYVLANPDY (domain or fragment) [ABA responsive 17 like protein (ABR17-like), 46 amino acid peptide of pGADT7-rec clone 5]

Target: 1R-MYB transcription factor (single repeat MYB; TUS38128) from chickpea (chickpea (Cicer arietinum))
Assay: two-hybrid; co-transformation of Y2HGold with the bait clone (1R-MYB in pGBKT7) and the isolated prey clone (pGADT7-Rec), plated on QDO/X/A; empty bait vector as control

Row | binding | Binder
7 | binds | B1
8 | binds | B2
9 | binds | SIVKISVKYHTKGDLVLSDAVRDETKAKGTGLLKAIEGYVLANPDY (domain or fragment) [ABA responsive 17 like protein (ABR17-like), 46 amino acid peptide of pGADT7-rec clone 5]

Target: 1R-MYB transcription factor (single repeat MYB; TUS38128) from chickpea (chickpea (Cicer arietinum))
Assay: two-hybrid; library screen by mating: Y187 with drought stressed chickpea root cDNA library in pGADT7-Rec mated with Y2HGold carrying 1R-MYB in pGBKT7; selection on DDO/X/A, colonies patched on QDO/X/A, 30°C, 3-5 days

Row | binding | Binder
10 | binds | B1
11 | binds | B2
12 | binds | SIVKISVKYHTKGDLVLSDAVRDETKAKGTGLLKAIEGYVLANPDY (domain or fragment) [ABA responsive 17 like protein (ABR17-like), 46 amino acid peptide of pGADT7-rec clone 5]

These are yes or no findings as the source states them, for the method shown. Binding calls can cover weak binding; strength is not graded here.
